# ± gives the standard deviation of the averaged measurements. Differences between knockout arms are mostly noise.
# Test system: ZR-75-1
# Experiment: relative cell number vs DMSO control (72 h) (% of DMSO); higher = less growth inhibition (more cells)
# Method: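 QMAP-Seq: a pool of 5 breast cancer cell lines (ZR-75-1, SKBR3, HCC-38, MDA-MB-231, BT-20), each carrying 12 doxycycline-inducible Cas9 sgRNA perturbations (11 knockouts plus non-targeting sgNT), was treated with compounds for 72 h at four 10-fold doses (10 nM-10 uM or 1 nM-1 uM range). Barcodes were amplified and sequenced, and cell number was interpolated from 293T spike-in standard curves. The result is expressed as % of the median of DMSO wells. Two biological replicates.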
# [1] = sgRNA knockout: sgATF3, 1000 nM
# [2] = sgRNA knockout: sgATF3, 10000 nM
# [3] = sgRNA knockout: sgATF4, 1000 nM
# [4] = sgRNA knockout: sgATF4, 10000 nM
# [5] = sgRNA knockout: sgATF6, 1000 nM
# [6] = sgRNA knockout: sgATF6, 10000 nM
# [7] = sgRNA knockout: sgATG7, 1000 nM
# [8] = sgRNA knockout: sgATG7, 10000 nM
# [9] = sgRNA knockout: sgERN1, 1000 nM
# [10] = sgRNA knockout: sgERN1, 10000 nM
# [11] = sgRNA knockout: sgHSF2, 1000 nM
# [12] = sgRNA knockout: sgHSF2, 10000 nM
# [13] = sgRNA knockout: sgNFE2L2, 10 nM
# [14] = sgRNA knockout: sgNFE2L2, 100 nM
# [15] = sgRNA knockout: sgNFE2L2, 1000 nM
# [16] = sgRNA knockout: sgNFE2L2, 10000 nM
# [17] = sgRNA knockout: sgSLC35F2, 10 nM
# [18] = sgRNA knockout: sgSLC35F2, 100 nM
# [19] = sgRNA knockout: sgSLC35F2, 1000 nM
# [20] = sgRNA knockout: sgSLC35F2, 10000 nM
# [21] = sgRNA knockout: sgXBP1, 1000 nM
# [22] = sgRNA knockout: sgXBP1, 10000 nM
structure (smiles),measurement,setting,value
Cc1cnc(Nc2ccc(OCCN3CCCC3)cc2)nc1Nc1cccc(S(=O)(=O)NC(C)(C)C)c1,relative cell number,"sgRNA knockout: sgATF3, 10 nM",119 ± 8.5
same,relative cell number,"sgRNA knockout: sgATF3, 100 nM",84.5 ± 1.2
same,relative cell number,[1],69.3 ± 39
same,relative cell number,[2],18 ± 4
same,relative cell number,"sgRNA knockout: sgATF4, 10 nM",87.7 ± 33
same,relative cell number,"sgRNA knockout: sgATF4, 100 nM",111 ± 27
same,relative cell number,[3],76.6 ± 16
same,relative cell number,[4],23.7 ± 5.8
same,relative cell number,"sgRNA knockout: sgATF6, 10 nM",104 ± 57
same,relative cell number,"sgRNA knockout: sgATF6, 100 nM",92.1 ± 7.4
same,relative cell number,[5],80 ± 26
same,relative cell number,[6],10.9 ± 6.7
same,relative cell number,"sgRNA knockout: sgATG7, 10 nM",98.1 ± 6.7
same,relative cell number,"sgRNA knockout: sgATG7, 100 nM",96.2 ± 10
same,relative cell number,[7],74.3 ± 42
same,relative cell number,[8],17.7 ± 7.9
same,relative cell number,"sgRNA knockout: sgERN1, 10 nM",105 ± 31
same,relative cell number,"sgRNA knockout: sgERN1, 100 nM",108 ± 23
same,relative cell number,[9],64.3 ± 13
same,relative cell number,[10],15.2 ± 0.5
same,relative cell number,"sgRNA knockout: sgHSF2, 10 nM",95.6 ± 4.7
same,relative cell number,"sgRNA knockout: sgHSF2, 100 nM",107 ± 19
same,relative cell number,[11],66.2 ± 11
same,relative cell number,[12],16.9 ± 0.71
same,relative cell number,[13],106 ± 41
same,relative cell number,[14],86.3 ± 21
same,relative cell number,[15],73.16 ± 0.61
same,relative cell number,[16],11.7 ± 1.5
same,relative cell number,[17],74 ± 35
same,relative cell number,[18],67.3 ± 13
same,relative cell number,[19],69.8 ± 25
same,relative cell number,[20],23.6 ± 0.096
same,relative cell number,"sgRNA knockout: sgXBP1, 10 nM",90.4 ± 22
same,relative cell number,"sgRNA knockout: sgXBP1, 100 nM",106 ± 8.6
same,relative cell number,[21],70.2 ± 6.6
same,relative cell number,[22],19.15 ± 0.074
O=c1ncccn1[C@@H]1O[C@H](CO)[C@@H](O)[C@H]1O [Zebularine],relative cell number,"sgRNA knockout: sgATF3, 10 nM",117 ± 18
same,relative cell number,"sgRNA knockout: sgATF3, 100 nM",107 ± 15
same,relative cell number,[1],101 ± 3.8
same,relative cell number,[2],125 ± 45
same,relative cell number,"sgRNA knockout: sgATF4, 10 nM",116 ± 5.5
same,relative cell number,"sgRNA knockout: sgATF4, 100 nM",81.6 ± 50
same,relative cell number,[3],85 ± 4.1
same,relative cell number,[4],129 ± 33
same,relative cell number,"sgRNA knockout: sgATF6, 10 nM",166 ± 4.5
same,relative cell number,"sgRNA knockout: sgATF6, 100 nM",137 ± 14
same,relative cell number,[5],99.9 ± 29
same,relative cell number,[6],81.2 ± 33
same,relative cell number,"sgRNA knockout: sgATG7, 10 nM",103 ± 33
same,relative cell number,"sgRNA knockout: sgATG7, 100 nM",93.1 ± 5.9
same,relative cell number,[7],91.4 ± 17
same,relative cell number,[8],101 ± 31
same,relative cell number,"sgRNA knockout: sgERN1, 10 nM",101 ± 26
same,relative cell number,"sgRNA knockout: sgERN1, 100 nM",114 ± 5.9
same,relative cell number,[9],104 ± 46
same,relative cell number,[10],135 ± 20
same,relative cell number,"sgRNA knockout: sgHSF2, 10 nM",124 ± 58
same,relative cell number,"sgRNA knockout: sgHSF2, 100 nM",78.7 ± 3.5
same,relative cell number,[11],98.1 ± 2.8
same,relative cell number,[12],110.6 ± 0.53
same,relative cell number,[13],98.7 ± 29
same,relative cell number,[14],146 ± 11
same,relative cell number,[15],74.7 ± 10
same,relative cell number,[16],125 ± 16
same,relative cell number,[17],117 ± 31
same,relative cell number,[18],62.6 ± 4.1
same,relative cell number,[19],61.2 ± 9.2
same,relative cell number,[20],83 ± 56
same,relative cell number,"sgRNA knockout: sgXBP1, 10 nM",98.5 ± 25
same,relative cell number,"sgRNA knockout: sgXBP1, 100 nM",120 ± 4.4
same,relative cell number,[21],89.2 ± 24
same,relative cell number,[22],132 ± 28
C[C@@H](Oc1cc(-n2cnc3ccc(CN4CCN(C)CC4)cc32)sc1C(N)=O)c1ccccc1C(F)(F)F,relative cell number,"sgRNA knockout: sgATF3, 10 nM",86 ± 9.1
same,relative cell number,"sgRNA knockout: sgATF3, 100 nM",17.2 ± 9.6
same,relative cell number,[1],37.3 ± 9.1
same,relative cell number,[2],31.7 ± 4.5
same,relative cell number,"sgRNA knockout: sgATF4, 10 nM",105 ± 4
same,relative cell number,"sgRNA knockout: sgATF4, 100 nM",27.3 ± 6.2
same,relative cell number,[3],40 ± 7.3
same,relative cell number,[4],36 ± 0.85
same,relative cell number,"sgRNA knockout: sgATF6, 10 nM",94.2 ± 31
same,relative cell number,"sgRNA knockout: sgATF6, 100 nM",23.6 ± 3.5
same,relative cell number,[5],35.5 ± 2.5
same,relative cell number,[6],36.7 ± 2.2
same,relative cell number,"sgRNA knockout: sgATG7, 10 nM",85.1 ± 31
same,relative cell number,"sgRNA knockout: sgATG7, 100 nM",24 ± 0.4
same,relative cell number,[7],40.2 ± 3.6
same,relative cell number,[8],39.3 ± 21
same,relative cell number,"sgRNA knockout: sgERN1, 10 nM",98.7 ± 6.7
same,relative cell number,"sgRNA knockout: sgERN1, 100 nM",19.5 ± 14
same,relative cell number,[9],39.6 ± 7.2
same,relative cell number,[10],47.5 ± 1.6
same,relative cell number,"sgRNA knockout: sgHSF2, 10 nM",96.5 ± 16
same,relative cell number,"sgRNA knockout: sgHSF2, 100 nM",30.5 ± 1
same,relative cell number,[11],38.5 ± 11
same,relative cell number,[12],42.5 ± 13
same,relative cell number,[13],113 ± 0.63
same,relative cell number,[14],21.6 ± 7.7
same,relative cell number,[15],35.6 ± 14
same,relative cell number,[16],42.9 ± 14
same,relative cell number,[17],59.3 ± 4.9
same,relative cell number,[18],26.9 ± 1.9
same,relative cell number,[19],50.7 ± 11
same,relative cell number,[20],24.3 ± 20
same,relative cell number,"sgRNA knockout: sgXBP1, 10 nM",107 ± 2.3
same,relative cell number,"sgRNA knockout: sgXBP1, 100 nM",20.2 ± 0.26
same,relative cell number,[21],32.8 ± 3.3
same,relative cell number,[22],37.8 ± 5.7
CNC(=O)c1cc(Oc2ccc(NC(=O)Nc3ccc(Cl)c(C(F)(F)F)c3)c(F)c2)ccn1 [Regorafenib],relative cell number,"sgRNA knockout: sgATF3, 10 nM",82.7 ± 8
same,relative cell number,"sgRNA knockout: sgATF3, 100 nM",119 ± 15
same,relative cell number,[1],77.2 ± 5.6
same,relative cell number,[2],25.5 ± 10
same,relative cell number,"sgRNA knockout: sgATF4, 10 nM",101 ± 45
same,relative cell number,"sgRNA knockout: sgATF4, 100 nM",132 ± 25
same,relative cell number,[3],100 ± 8.7
same,relative cell number,[4],29.2 ± 18
same,relative cell number,"sgRNA knockout: sgATF6, 10 nM",98.1 ± 41
same,relative cell number,"sgRNA knockout: sgATF6, 100 nM",108 ± 9.9
same,relative cell number,[5],118 ± 10
same,relative cell number,[6],28.5 ± 10
same,relative cell number,"sgRNA knockout: sgATG7, 10 nM",90.79 ± 0.67
same,relative cell number,"sgRNA knockout: sgATG7, 100 nM",130 ± 8.6
same,relative cell number,[7],113 ± 1.2
same,relative cell number,[8],24.3 ± 5.3
same,relative cell number,"sgRNA knockout: sgERN1, 10 nM",97.28 ± 0.7
same,relative cell number,"sgRNA knockout: sgERN1, 100 nM",104 ± 29
same,relative cell number,[9],90.2 ± 19
same,relative cell number,[10],31.2 ± 5.3
same,relative cell number,"sgRNA knockout: sgHSF2, 10 nM",102 ± 11
same,relative cell number,"sgRNA knockout: sgHSF2, 100 nM",125 ± 15
same,relative cell number,[11],96.5 ± 1
same,relative cell number,[12],25 ± 3.1
same,relative cell number,[13],104 ± 7.5
same,relative cell number,[14],106 ± 9.6
same,relative cell number,[15],121 ± 1.9
same,relative cell number,[16],28.1 ± 7.8
same,relative cell number,[17],48.2 ± 18
same,relative cell number,[18],73.1 ± 26
same,relative cell number,[19],109 ± 26
same,relative cell number,[20],12.3 ± 3.3
same,relative cell number,"sgRNA knockout: sgXBP1, 10 nM",98.5 ± 22
same,relative cell number,"sgRNA knockout: sgXBP1, 100 nM",92.4 ± 25
same,relative cell number,[21],118 ± 1.6
same,relative cell number,[22],30.7 ± 5.8
COCC[n+]1c2c(n(Cc3cnccn3)c1C)C(=O)c1ccccc1C2=O [YM155],relative cell number,"sgRNA knockout: sgATF3, 1 nM",113 ± 2.9
same,relative cell number,"sgRNA knockout: sgATF3, 10 nM",30.2 ± 0.79
same,relative cell number,"sgRNA knockout: sgATF3, 100 nM",5.43 ± 2.5
same,relative cell number,[1],4.23 ± 1.5
same,relative cell number,"sgRNA knockout: sgATF4, 1 nM",83.1 ± 11
same,relative cell number,"sgRNA knockout: sgATF4, 10 nM",31.9 ± 4.1
same,relative cell number,"sgRNA knockout: sgATF4, 100 nM",10.3 ± 0.65
same,relative cell number,[3],3.47 ± 2.1
same,relative cell number,"sgRNA knockout: sgATF6, 1 nM",141 ± 10
same,relative cell number,"sgRNA knockout: sgATF6, 10 nM",50.5 ± 1.4
same,relative cell number,"sgRNA knockout: sgATF6, 100 nM",7.51 ± 2.1
same,relative cell number,[5],3.64 ± 0.16
same,relative cell number,"sgRNA knockout: sgATG7, 1 nM",106 ± 6.8
same,relative cell number,"sgRNA knockout: sgATG7, 10 nM",23.6 ± 6.6
same,relative cell number,"sgRNA knockout: sgATG7, 100 nM",4.3 ± 3.2
same,relative cell number,[7],2.78 ± 2.1
same,relative cell number,"sgRNA knockout: sgERN1, 1 nM",95.3 ± 4.2
same,relative cell number,"sgRNA knockout: sgERN1, 10 nM",53.4 ± 7.7
same,relative cell number,"sgRNA knockout: sgERN1, 100 nM",12.5 ± 7.1
same,relative cell number,[9],3.32 ± 2.9
same,relative cell number,"sgRNA knockout: sgHSF2, 1 nM",86.8 ± 15
same,relative cell number,"sgRNA knockout: sgHSF2, 10 nM",25.7 ± 4.3
same,relative cell number,"sgRNA knockout: sgHSF2, 100 nM",7.47 ± 1.7
same,relative cell number,[11],3.44 ± 2.1
same,relative cell number,"sgRNA knockout: sgNFE2L2, 1 nM",109 ± 8.1
same,relative cell number,[13],26.5 ± 8.9
same,relative cell number,[14],7.33 ± 2.3
same,relative cell number,[15],5.03 ± 0.82
same,relative cell number,"sgRNA knockout: sgSLC35F2, 1 nM",91.3 ± 29
same,relative cell number,[17],31.1 ± 9.6
same,relative cell number,[18],20.8 ± 2.6
same,relative cell number,[19],9.43 ± 9
same,relative cell number,"sgRNA knockout: sgXBP1, 1 nM",88.2 ± 18
same,relative cell number,"sgRNA knockout: sgXBP1, 10 nM",35.7 ± 5.8
same,relative cell number,"sgRNA knockout: sgXBP1, 100 nM",4.88 ± 0.2
same,relative cell number,[21],3.15 ± 1.6

# 7 successive records already listed, for reference:
structure (smiles),measurement,setting,value
C[C@@H](Oc1cc(-n2cnc3ccc(CN4CCN(C)CC4)cc32)sc1C(N)=O)c1ccccc1C(F)(F)F,relative cell number,"sgRNA knockout: sgATF3, 10 nM",86 ± 9.1
same,relative cell number,"sgRNA knockout: sgATF3, 100 nM",17.2 ± 9.6
same,relative cell number,[1],37.3 ± 9.1
same,relative cell number,[2],31.7 ± 4.5
same,relative cell number,"sgRNA knockout: sgATF4, 10 nM",105 ± 4
same,relative cell number,"sgRNA knockout: sgATF4, 100 nM",27.3 ± 6.2
same,relative cell number,[3],40 ± 7.3
